Data reported in the supplement of paper PMC8497498.
± gives the standard deviation of the averaged measurements. This is one part of the list. The data scatter; read single values as rough.

Assays:
Conditions in all cases: 10 µM
[1] = system: Plasmodium vivax liver stage (primary human hepatocyte culture); assay: hypnozoite quantity inhibition (% inhibition); higher = more active against hypnozoites
[2] = system: Plasmodium vivax liver stage (primary human hepatocyte culture); assay: schizont net growth area inhibition (% inhibition); higher = more active against liver schizonts
[3] = system: primary human hepatocytes; assay: hepatic nuclei reduction relative to DMSO (100 - % of negative control); higher = more toxic to hepatocytes
[4] = assay mode: Prophylactic (treated before or shortly after infection), fixed day 6 post-infection
[5] = assay mode: Radical Cure (treated from day 5 post-infection for 3 days), fixed day 8 post-infection

| SMILES | hypnozoite quantity inhibition [1, 4] | hypnozoite quantity inhibition [1, 5] | schizont net growth area inhibition [2, 4] | schizont net growth area inhibition [2, 5] | hepatic nuclei reduction [3, 4] [%] | hepatic nuclei reduction [3, 5] [%] |
| --- | --- | --- | --- | --- | --- | --- |
| Cc1nn(C)c(C)c1NS(=O)(=O)c1c(Cl)cc(-c2ccnc(N3CCNCC3)c2)cc1Cl | -35 | -4 | 102 | -89.7 | -4 | -5 |
| CCOc1cc(CNC(C)C(O)c2ccccc2)cc(Cl)c1OCC (configuration not stated) | -56.3 | 19.8 | -15.1 | 56.8 | -2 | -4 |
| CCOc1c(Cl)cc(CNC(C)C(O)c2ccccc2)cc1OC (configuration not stated) | -3.5 | 47.3 | -9.7 | 49.8 | -14 | 1 |
| COc1cc(CNCCc2ccc(Cl)cc2)cc(OC)c1O | 11.4 | -52.5 | 40 | -34 | -1 | -12 |
| CO/N=C(\C(=O)OC)c1ccccc1CO/N=C(\C)c1cccc(C(F)(F)F)c1 | -28 | -10 | -6 | 40.2 | -8 | 1 |
| O=C1O[C@@H](COc2ccon2)CN1c1cc(F)c(C2=CCN(Cc3ccccc3)CC2)c(F)c1 | 21 | 12 | -102 | 14.4 | -7 | -9 |
| CC1CC(C)C(=O)C(C(O)CC2CC(=O)NC(=O)C2)C1 (configuration not stated) | 80 | -20.4 ± 73 | 102 | 96.4 ± 0.57 | -10 | 21 ± 23 |
| COc1ccccc1CN[C@H]1C2CCN(CC2)[C@H]1C(c1ccccc1)c1ccccc1 | 3 | 7 | 21.2 | -64.1 | -3 | 1 |
| CC1COC(Cn2cncn2)(c2ccc(Oc3ccc(Cl)cc3)cc2Cl)O1 (configuration not stated) | -3 | 14 | -2.6 | -159 | -12 | -7 |
| Cc1cccc(C(=O)Nc2ccnc(N(C)C3CCN(CC(C)C)CC3)c2)c1 | -21 | -44 | 60.2 | -14 | 0 | 0 |
| Nc1c2c(nc3sc4c(c13)CCCC4)CCCC2 | -3 | -23 | 38.2 | -6.9 | -1 | 3 |
| CC(C)(N)CNC(=O)CC1CCC2(CC1)OOC1(O2)C2CC3CC(C2)CC1C3 (configuration not stated) | -31 | 26 | 72.2 | 5.8 | 0 | -1 |
| O=C(CCc1ccco1)NC1CCN(CC2(c3ccc(Cl)cc3)CCC2)CC1 | 4.4 | -11.7 | -65.3 | -30 | -5 | -4 |
| CN(N=O)C1=C(NC2CCCCC2)C(=O)c2ccccc2C1=O | 12.1 | 29 | -54.4 | -25.2 | -18 | 0 |
| CC(C)(C)C(O)C(Oc1ccc(-c2ccccc2)cc1)n1cncn1 (configuration not stated) | -55 | -10 | -30.7 | -190 | -10 | -2 |
| c1cc(C2CCC3(CC2)OOC2(O3)C3CC4CC(C3)CC2C4)ccc1OCCN1CCOCC1 (configuration not stated) | -22 | 26 | -1.3 | 28 | -5 | -2 |

| SMILES | hypnozoite quantity inhibition [1, 4] | hypnozoite quantity inhibition [1, 5] | schizont net growth area inhibition [2, 4] | schizont net growth area inhibition [2, 5] | hepatic nuclei reduction [3, 4] [%] | hepatic nuclei reduction [3, 5] [%] |
| --- | --- | --- | --- | --- | --- | --- |
| COc1ccc(CN2CCN(Cc3ccccc3)CC2)c(O)c1 | 31.6 | -6.2 | 37.8 | -64.2 | -5 | -2 |
| CCc1nn(C)c(C(=O)NCc2ccc(Oc3ccc(C)cc3)cc2)c1Cl | -144 | 11 | 97.1 | 8.3 | 2 | 0 |
| CO[C@@H]1CN(c2ccc(C#CC3(O)CN4CCC3CC4)c(Cc3ccccc3)n2)C[C@H]1O (some centres not stated) | -15 | 14 | -26.2 | 53.2 | -1 | -1 |
| CO/C=C(/C(=O)OC)c1ccccc1Oc1cc(Oc2ccccc2C#N)ncn1 | 11 | -2 | 37.2 | -50.7 | 5 | -2 |
| CCCc1cc(O)c2c3c(c(=O)oc2c1)CN(C)CC3 | -58.6 | 35.9 | -13.4 | 43.8 | -6 | -2 |
| Oc1ccc(Br)cc1CN1CCN(Cc2cccc(F)c2)CC1 | -41.4 | 38.2 | -63.2 | 15.4 | -8 | 4 |
| CCCCCCc1cc(O)c2c3c(c(=O)oc2c1)CCC(C)C3 (configuration not stated) | 7.6 | 29.2 | 5.3 | -24.4 | -4 | 1 |
| Cc1nn(Cc2ccccc2)c(Cl)c1C(=O)NC1CCCCCC1 | 11 | -4 | -2.7 | -152 | -4 | 1 |
| Oc1ccc(Br)cc1CN1CCN(Cc2ccc(Cl)cc2)CC1 | 1.9 | 4.7 | 8.1 | -24.2 | -1 | -7 |
| CC1(C)OB(O)c2ccc(C3=NOC(c4cc(Cl)c(F)c(Cl)c4)(C(F)(F)F)C3)cc21 (configuration not stated) | 46 | -28 | 26.4 | -96.9 | 3 | -5 |
| CC12CCC3C(CC=C4CC(OS(=O)(=O)O)CCC43C)C1CCC2=O (configuration not stated) | -3 | 34 | 27.7 | 52.4 | -7 | 1 |
| Cc1cc(C2=NOC(c3cc(Cl)c(F)c(Cl)c3)(C(F)(F)F)C2)ccc1C(=O)NCc1ccc2c(c1)C(C)(C)OB2O (configuration not stated) | 15 | 1 | 30 | -162 | -6 | -12 |
| Oc1ccc(C(=C(Cl)Cl)c2ccc(O)cc2)cc1 | -27.3 | 49.6 | 17.3 | 18.9 | -5 | 1 |
| O=C1O[C@@H](CO)CN1c1cc(F)c(C2=CCN(Cc3ccccc3)CC2)c(F)c1 | -19 | 16 | -20 | -6.4 | -5 | -2 |
| CC1CCC2C(C)C(N3CCS(=O)(=O)CC3)OC3OC4(C)CCC1C32OO4 (configuration not stated) | -55 | 12 | -58.2 | -0.7 | -11 | -2 |
| CC1CCC2C(C)C(=O)OC3OC4(C)CCC1C32OO4 (configuration not stated) | -55 | 34 | 18.4 | 50.2 | -20 | -1 |

Part of the list above, tab-delimited.
SMILES	hypnozoite quantity inhibition [1, 4]	hypnozoite quantity inhibition [1, 5]	schizont net growth area inhibition [2, 4]	schizont net growth area inhibition [2, 5]	hepatic nuclei reduction [3, 4] [%]	hepatic nuclei reduction [3, 5] [%]
CCOc1cc(CNC(C)C(O)c2ccccc2)cc(Cl)c1OCC (configuration not stated)	-56.3	19.8	-15.1	56.8	-2	-4
Oc1ccc(Br)cc1CN1CCN(Cc2ccc(Cl)cc2)CC1	1.9	4.7	8.1	-24.2	-1	-7
